Test results: PubChem BioAssay AID1347076 (National Center for Advancing Translational Sciences (NCATS), 2019)
Several values for one entry are separate records, joined by “and”; a condition that tells them apart may be missing. Equal entries are not always repeated. The campaign covered roughly 400,000 compounds. About 13,000 (3.2%) were called active. This list was built around the results that the source calls inconclusive (neither active nor inactive); the mix of calls is not that of the screen. Calls follow the shape of the dose curve; as a rule, active = well fitted cell-killing curve with a large enough effect; inconclusive = small, poorly fitted or top-dose-only effect, or effect the other way; inactive = flat fitted curve, though single readings scatter. Potencies of inconclusive entries are doubtful fits and often do not repeat.

Assay: qHTS assay for MDR1-selective chemotherapeutics: Primary screen using the drug-selected MDR subline cells KB-V1; also: nearly all actives have a fitted effect of over 60% in size
Details: KB-V1 MDR cells viability, CellTiter-Glo, 72 h; series mostly up to 46.1 µM
In short: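 In this primary screen, KB-V1 cells overexpressing P-gp are incubated with library compounds (lowest to highest concentration) for 72 h at 37 degrees C before a luminescent ATP viability read.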
Potency is read from the fitted curve at half-maximal effect.

SMILES	Potency
C[C@@H]1CN([C@@H](C)CO)C(=O)c2cc(NC(=O)Nc3ccccc3)ccc2O[C@H]1CN(C)C(=O)Nc1cccc2ccccc12	inactive
CCN(C(=O)CCS(=O)(=O)c1cc2c(cc1C)NC(=O)CO2)c1cccc(C)c1	inconclusive: 20.6 µM [cytotoxic, single point]
Cc1ccc(S(=O)(=O)N2CCOCC2)cc1C(=O)Nc1ccc(N2CCCCCC2)cc1	inconclusive: 8.2 µM [cytotoxic, partial curve]
C[C@@H](CO)NC(=O)c1ccc2c3n(nc2c1)-c1ccccc1CO3	inactive
COC(=O)c1c(C(=O)OC)c2c(-c3ccccc3)cc3cccc1n32	inconclusive: 2.91 µM [cytotoxic, full curve]
Cc1ccc(-c2nnc(NC(=O)c3ccc([N+](=O)[O-])o3)o2)c(C)c1	inconclusive: 29.1 µM [cytotoxic, single point]
CCc1cc(=O)oc2cc3oc(C)c(C)c3cc12	inconclusive: 16.4 µM [cytotoxic, partial curve]
COC(=O)c1ccccc1NC(=O)Cn1nnc(-c2ccc(OC)cc2)n1	active: 14.6 µM and inconclusive: 25.9 µM [cytotoxic, single point]
O=C(Nc1nc2ccc(F)cc2s1)c1cccc(S(=O)(=O)N2CCc3ccccc32)c1	active: 2.91 µM
Cc1noc(C)c1C(=O)OCC(=O)c1cc(C)n(Cc2ccccc2Cl)c1C	inconclusive: 18.4 µM [cytotoxic, single point]
CC(C)[C@@H]1O[C@H](CCc2ccccc2)CC2=C1C(=O)OC(C)(C)O2	inconclusive: 20.6 µM [cytotoxic, single point]
CN(CC(=O)Nc1ccccc1Br)C(=O)c1ccccc1OCc1ccc(Cl)cc1	active: 5.8 µM
NS(=O)(=O)c1ccc(CNC(=O)C23CC4CC(CC(C4)C2)C3)cc1	inconclusive: 14.6 µM [rising, partial curve, poor fit]
O=C(CCCn1c(=O)[nH]c2ccc(Br)cc2c1=O)N1CCN(c2cccc(Cl)c2)CC1	inconclusive: 23.1 µM [cytotoxic, partial curve, poor fit]
CCCCCCSc1ccc([C@@H]2[C@H]3C(=O)N(CC)C(=O)[C@H]3[C@]3(C(=O)OC)CCCCN23)cc1OC	inconclusive: 29.1 µM [cytotoxic, single point]
CC(C)c1c(C(=O)N/N=C/c2ccccc2C(=O)O)nnn1-c1nonc1N	inconclusive: 25.9 µM [rising, partial curve, poor fit]
COC(=O)C1=C(N)Oc2cc(C)n(Cc3ccncc3)c(=O)c2C1c1cccnc1 (stereo unspecified)	inconclusive: 5.8 µM [rising, partial curve]
COc1cc(OC)cc(C(=O)Nc2ccc3nc4n(c(=O)c3c2)CCCC4)c1	inactive
CCCCc1nnc(NC(=O)c2ccc(OCc3c(C)noc3C)cc2)s1	inconclusive: 2.06 µM [cytotoxic, full curve]
CCN(CC)S(=O)(=O)c1csc(C(=O)Nc2ccccn2)c1	active: 23.1 µM
CCN(CC)S(=O)(=O)c1ccc(Cl)c(NC(=O)c2ccc(C#N)cc2)c1	inconclusive: 14.6 µM [cytotoxic, partial curve]
CCOc1ccc(-c2cn3c(n2)sc2cc(C(=O)NCCCN4CCCCC4)ccc23)cc1	active: 20.6 µM

SMILES	Potency
CCSc1nnc(NC(=O)c2ccccc2)s1	inconclusive: 20.6 µM [cytotoxic, single point]
CCc1ccc(NC(=O)Cn2cccc2)cc1	inactive
CC1(C)CC(=O)C=C(c2ccc(COC(=O)/C=C/c3ccccc3)cc2)C1=O	inactive
CCOC(=O)C1=C(C)N=c2sc(=Cc3cc(Cl)c(OCC(=O)O)c(Cl)c3)c(=O)n2C1c1cccc(OC)c1 (stereo unspecified)	inactive
COc1ccc(OC)c(NC(=O)CN2C(=O)NC3(CCCc4ccccc43)C2=O)c1 (stereo unspecified)	inconclusive: 18.4 µM [cytotoxic, single point]
CCCn1c(N)c(C(=O)CSc2nnc(C3CC3)n2-c2ccccc2)c(=O)[nH]c1=O	inconclusive: 29.1 µM [rising, single point]
O=C(COc1ccc(Cl)cc1Cl)NN=C1c2ccccc2-c2ccccc21	inconclusive: 18.4 µM [cytotoxic, partial curve, poor fit]
CC(C)Cn1c(CN2CCN(c3cccc(Cl)c3)CC2)nc2c1c(=O)[nH]c(=O)n2C	inconclusive: 20.6 µM [cytotoxic, single point]
COc1ccc(C(CC(=O)N2CCCCC2)C(C)C)cc1 (stereo unspecified)	inconclusive: 29.1 µM [cytotoxic, single point]
O=C(CCC1CCCN(C(=O)c2ccc(F)c(F)c2)C1)N1CCN(c2ccccn2)CC1 (stereo unspecified)	inconclusive: 6.51 µM [cytotoxic, partial curve]
C[C@H]1CN([C@@H](C)CO)C(=O)c2cc(NC(=O)Nc3cccc4ccccc34)ccc2O[C@@H]1CN(C)Cc1ccc(-c2ccccc2)cc1	inconclusive: 25.9 µM [cytotoxic, partial curve, poor fit]
COc1ccc(NC(=O)COC(=O)C2CC2)cc1S(=O)(=O)N1CCCCC1	inconclusive: 29.1 µM [rising, single point]
CC(OC(=O)CCc1nc2ccccc2c(=O)[nH]1)C(=O)Nc1cccc(C(F)(F)F)c1 (stereo unspecified)	inconclusive: 29.1 µM [rising, single point]
COc1ccc(NC(=O)[C@@H]2CCCN2S(=O)(=O)c2ccc(Cl)cc2)cc1	inactive
c1ccc([C@H]2CC3C[C@@H](c4ccccc4)N2O3)cc1	inconclusive: 29.1 µM [rising, single point]
CNC(=O)c1csc(Cc2c(Cl)sc3ccc(Cl)cc23)n1	inconclusive: 23.1 µM [cytotoxic, partial curve, poor fit]
CCc1nnc(NC(=O)CCCSc2nc3ccccc3[nH]2)s1	inconclusive: 29.1 µM [cytotoxic, single point]
CC(=O)Nc1ccccc1NC(=O)c1ccc(C)c(C)c1	inactive
COc1ccc2c(c1)C(=O)N1[C@H]3c4cc(Cl)ccc4OC[C@@H]3[C@H](c3ccccc3)[C@]1(C)C(=O)N2	inconclusive: 16.4 µM [cytotoxic, single point]
O=C(Nc1ccc2ccccc2c1)c1cnccn1	inconclusive: 16.4 µM [cytotoxic, single point]
CC(C)COc1cccc(C(=O)Nc2ccc(N3CCOCC3)cc2N2CCOCC2)c1	inactive
COc1ccc(C(=O)O)c(OC)n1	inconclusive: 16.4 µM [rising, single point]

SMILES	Potency
COc1ccc(-c2cc(C(=O)NCC3CCCO3)c3ccccc3n2)c(OC)c1 (stereo unspecified)	inactive
COc1ccc(C(=O)CSc2n[nH]c(=O)n2Cc2ccco2)cc1	inactive
Cn1nccc1-c1coc2c(C(=O)NCc3ccccc3)cccc12	inconclusive: 32.6 µM [cytotoxic, single point]
NC(=O)C1CCN(c2ncc(-c3ccc(Cl)cc3)s2)CC1	inactive
COc1cc2c(cc1NC(=O)CCCCCN1C(=O)CCC1=O)oc1ccccc12	active: 7.31 µM
Oc1c(Br)cc(Br)cc1C=Nc1cccc2ncccc12	inconclusive: 29.1 µM [cytotoxic, single point]
FC(F)Oc1ccc(NC(=S)NNc2ccnc3cc(Cl)ccc23)cc1	inconclusive: 29.1 µM [cytotoxic, single point]
Nc1[nH]c(C(=O)c2ccccc2)c(-c2ccncc2)c1C(=O)NCc1ccc(Cl)cc1	inconclusive: 16.4 µM [cytotoxic, partial curve, poor fit]
CC1=Nc2ccccc2/C1=C/c1nc(-c2ccc(C)s2)oc1O	inconclusive: 29.1 µM [rising, single point]
COc1ccc(CN(C)C(=O)c2ccc3c(=O)n4c(nc3c2)CCC4)c(OC)c1	inconclusive: 8.2 µM [cytotoxic, partial curve]
CCOC(=O)Cc1csc(Nc2ccc(Cl)cc2)n1	inactive
COc1ccc(NS(=O)(=O)c2cc(NC(=O)[C@@H](NC(=O)c3ccccc3)C(C)C)ccc2C)cc1	inconclusive: 18.4 µM [cytotoxic, single point]
C=CCc1c(C)nc(-c2ccccc2)nc1N/N=C(\C)c1ccc(N)cc1	active: 23.1 µM
COc1cc(/C=C2\SC(=Nc3ccccc3)N(Cc3ccco3)C2=O)ccc1OC(C)C(=O)O (stereo unspecified)	inactive
CCC(CC)C(=O)N(C)c1c(C)nc2c(OCc3ccc(OC(F)F)cc3)cccn12	inconclusive: 23.1 µM [cytotoxic, single point]
N#Cc1ccccc1CSc1nnc(Cc2ccccc2)o1	inconclusive: 13 µM [cytotoxic, single point]
CCOC(=O)c1cnc(-n2nc(C)cc2C)nc1Nc1ccc(C)cc1	active: 1.03 µM
COc1ccc(NC(=S)N2CCN(C(c3ccccc3)c3ccccc3)CC2)c(OC)c1	inactive
O=C1c2ccccc2-c2cc([N+](=O)[O-])c([N+](=O)[O-])cc21	inactive
O=C(CSc1nc2c(c(=O)n1-c1ccc(Br)cc1)SCC2)NCC1CCCO1 (stereo unspecified)	inconclusive: 23.1 µM [cytotoxic, partial curve, poor fit]
Cc1cccc2nc(-c3ccco3)c(Nc3ccc4c(c3)OCCO4)n12	inconclusive: 0.0065 µM [cytotoxic, full curve, poor fit]
O=C(NCCc1ccc(Cl)cc1)c1nnc(Cc2ccc(Cl)cc2Cl)o1	inactive

A second format for part of the listing above.

| SMILES | Potency |
| --- | --- |
| COc1cc2c(cc1NC(=O)CCCCCN1C(=O)CCC1=O)oc1ccccc12 | active: 7.31 µM |
| Oc1c(Br)cc(Br)cc1C=Nc1cccc2ncccc12 | inconclusive: 29.1 µM [cytotoxic, single point] |
| FC(F)Oc1ccc(NC(=S)NNc2ccnc3cc(Cl)ccc23)cc1 | inconclusive: 29.1 µM [cytotoxic, single point] |
| Nc1[nH]c(C(=O)c2ccccc2)c(-c2ccncc2)c1C(=O)NCc1ccc(Cl)cc1 | inconclusive: 16.4 µM [cytotoxic, partial curve, poor fit] |
| CC1=Nc2ccccc2/C1=C/c1nc(-c2ccc(C)s2)oc1O | inconclusive: 29.1 µM [rising, single point] |
| COc1ccc(CN(C)C(=O)c2ccc3c(=O)n4c(nc3c2)CCC4)c(OC)c1 | inconclusive: 8.2 µM [cytotoxic, partial curve] |
| CCOC(=O)Cc1csc(Nc2ccc(Cl)cc2)n1 | inactive |
| COc1ccc(NS(=O)(=O)c2cc(NC(=O)[C@@H](NC(=O)c3ccccc3)C(C)C)ccc2C)cc1 | inconclusive: 18.4 µM [cytotoxic, single point] |
| C=CCc1c(C)nc(-c2ccccc2)nc1N/N=C(\C)c1ccc(N)cc1 | active: 23.1 µM |
| COc1cc(/C=C2\SC(=Nc3ccccc3)N(Cc3ccco3)C2=O)ccc1OC(C)C(=O)O (stereo unspecified) | inactive |
| CCC(CC)C(=O)N(C)c1c(C)nc2c(OCc3ccc(OC(F)F)cc3)cccn12 | inconclusive: 23.1 µM [cytotoxic, single point] |
| N#Cc1ccccc1CSc1nnc(Cc2ccccc2)o1 | inconclusive: 13 µM [cytotoxic, single point] |
| CCOC(=O)c1cnc(-n2nc(C)cc2C)nc1Nc1ccc(C)cc1 | active: 1.03 µM |
| COc1ccc(NC(=S)N2CCN(C(c3ccccc3)c3ccccc3)CC2)c(OC)c1 | inactive |
| O=C1c2ccccc2-c2cc([N+](=O)[O-])c([N+](=O)[O-])cc21 | inactive |
| O=C(CSc1nc2c(c(=O)n1-c1ccc(Br)cc1)SCC2)NCC1CCCO1 (stereo unspecified) | inconclusive: 23.1 µM [cytotoxic, partial curve, poor fit] |
| Cc1cccc2nc(-c3ccco3)c(Nc3ccc4c(c3)OCCO4)n12 | inconclusive: 0.0065 µM [cytotoxic, full curve, poor fit] |
